Test results published in paper PMC9629621.
Results are given in words; binding and its absence hold for the method and conditions named. Binding seen in cells or lysates may run through a third protein. Some binding calls cover weakened binding; strength is not graded here. Where a sequence is shown, tags or fusion partners need not be part of it.

By UniProt entry, the sequences of proteins in these tests, tags left out.
UniProt P10591: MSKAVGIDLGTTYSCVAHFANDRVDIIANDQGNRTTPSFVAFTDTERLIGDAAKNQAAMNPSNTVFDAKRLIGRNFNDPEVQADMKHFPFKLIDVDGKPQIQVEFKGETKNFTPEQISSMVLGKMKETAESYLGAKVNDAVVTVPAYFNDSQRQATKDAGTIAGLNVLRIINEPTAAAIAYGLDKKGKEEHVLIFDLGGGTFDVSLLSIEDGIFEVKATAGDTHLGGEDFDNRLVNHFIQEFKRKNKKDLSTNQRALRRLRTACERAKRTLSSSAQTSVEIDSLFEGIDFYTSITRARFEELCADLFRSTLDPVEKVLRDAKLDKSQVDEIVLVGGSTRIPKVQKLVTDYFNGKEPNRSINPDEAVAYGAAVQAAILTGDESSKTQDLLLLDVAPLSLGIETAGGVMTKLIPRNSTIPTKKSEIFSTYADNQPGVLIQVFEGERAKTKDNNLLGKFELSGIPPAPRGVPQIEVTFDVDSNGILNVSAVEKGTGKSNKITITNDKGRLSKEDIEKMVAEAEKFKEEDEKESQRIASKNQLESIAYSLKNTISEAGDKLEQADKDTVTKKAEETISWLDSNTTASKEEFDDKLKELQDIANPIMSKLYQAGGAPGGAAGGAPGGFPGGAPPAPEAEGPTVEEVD

Target: T1, Pim1-GFP (wild type) (S. cerevisiae) (UniProt P36775)
T1 sequence: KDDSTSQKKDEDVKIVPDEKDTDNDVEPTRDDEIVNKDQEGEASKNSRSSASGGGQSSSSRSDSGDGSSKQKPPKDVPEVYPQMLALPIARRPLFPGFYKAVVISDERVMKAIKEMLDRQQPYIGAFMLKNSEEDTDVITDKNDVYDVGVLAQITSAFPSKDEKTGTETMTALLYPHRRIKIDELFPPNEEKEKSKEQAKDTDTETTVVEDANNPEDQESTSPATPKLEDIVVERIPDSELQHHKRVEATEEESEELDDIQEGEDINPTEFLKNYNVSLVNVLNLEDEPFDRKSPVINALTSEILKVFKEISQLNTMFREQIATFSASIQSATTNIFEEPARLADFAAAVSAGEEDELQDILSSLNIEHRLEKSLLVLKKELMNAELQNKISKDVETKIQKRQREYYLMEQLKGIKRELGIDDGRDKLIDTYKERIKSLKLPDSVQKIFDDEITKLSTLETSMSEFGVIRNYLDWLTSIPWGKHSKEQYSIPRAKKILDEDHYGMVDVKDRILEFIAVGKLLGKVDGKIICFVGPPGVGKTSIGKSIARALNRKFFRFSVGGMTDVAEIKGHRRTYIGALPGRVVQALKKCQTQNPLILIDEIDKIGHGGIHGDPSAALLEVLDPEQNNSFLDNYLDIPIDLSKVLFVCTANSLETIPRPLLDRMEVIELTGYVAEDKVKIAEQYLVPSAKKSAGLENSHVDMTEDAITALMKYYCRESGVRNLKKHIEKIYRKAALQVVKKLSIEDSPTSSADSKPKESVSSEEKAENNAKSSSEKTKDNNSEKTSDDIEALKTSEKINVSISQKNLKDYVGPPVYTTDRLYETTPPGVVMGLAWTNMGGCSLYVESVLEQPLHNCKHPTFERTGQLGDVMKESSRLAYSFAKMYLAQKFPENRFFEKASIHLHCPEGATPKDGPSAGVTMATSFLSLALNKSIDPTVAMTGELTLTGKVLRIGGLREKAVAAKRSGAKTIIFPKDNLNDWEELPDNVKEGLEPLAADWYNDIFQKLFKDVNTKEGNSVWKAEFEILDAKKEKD
Test: co-IP; yeast extract (200 ug) on anti-GFP magnetic beads (GFP-TRAP), 4°C overnight; 50 mM Na-phosphate pH 8.0, 300 mM NaCl, 0.01% Tween-20; western blot

Q: Which binding does the source give for “Ssa1 (endogenous, detected with anti-Ssa1) (from UniProt P10591 1-642)” here?
A: Its binding is “binds”.
